Assay results from PMC6855212, “Antibacterial activity of synthetic 1,3‐bis(aryloxy)propan‐2‐amines against Gram‐positive bacteria” (MicrobiologyOpen, 2019).

What was measured:
[1] = tested on: S. aureus ATCC 29212; test: MBC, plating of wells without growth; assay type: cell-based, Staphylococcus aureus; conditions: ratio in parentheses
Description: (§1) After incubation at 35°C for 24 hr, the colonies were counted and the percentage of inhibition was calculated. MBC is defined as the lowest compound's concentration that inhibits at least 99.9% of the bacterial cell count compared to nontreated viability control (Clinical and Laboratory Standards Institute, 1999).

[2] = tested on: E. faecalis ATCC 29213; test: MBC, plating of wells without growth; assay type: cell-based, Enterococcus faecalis; conditions: ratio in parentheses
Description: as §1

[3] = tested on: BSC‐40 cells; test: Cytotoxicity, MTT reduction assay; assay type: cell-based; conditions: CC50 divided by MIC
Description: (§2) The cytotoxicity of active compounds to mammalian cells was assessed using the MTT reduction assay (Mosmann, 1983). Vero and BSC‐40 cells were seeded in 96‐well plates (8 × 10^4 cells per well) and incubated at 37°C and 5% CO2 atmosphere. After 24 hr of incubation, 200 μL of fresh medium containing a serial dilution of compounds (10–1.25 μg/ml) were added to the plates. After 48 hr of incubation in the same conditions, 100 μL of MTT solution in MEM or DMEM (5 mg/ml) was added to each well and incubated for 3 hr at 37°C and 5% CO2 atmosphere. The medium was removed and 100 μL of DMSO was used to solubilize formazan crystals. Absorbance at 570 nm of each well was read using a spectrophotometer (VersaMax, Molecular Devices).

[4] = tested on: Vero cells; test: Cytotoxicity, MTT reduction assay; assay type: cell-based; conditions: CC50 divided by MIC
Description: as §2

SMILES: NC(COc1cccc2ccccc12)COc1cccc2ccccc12 [CPD20]
- MBC/MIC S. aureus ATCC 29212 [1]: 4.0
- MBC/MIC E. faecalis ATCC 29213 [2]: 2.0
- SI Staphylococcus aureus [3]: 1.0
- SI Streptococcus pyogenes [3]: 1.0
- SI Enterococcus faecalis [4]: 0.76
- SI MRSA ATCC 43300 [4]: 1.52
- SI Staphylococcus aureus [4]: 1.52
- SI Streptococcus pyogenes [4]: 1.52
- SI Strain 5749 ([4]; MRSA): 1.52
- SI Strain 5912 ([4]; MRSA): 1.52
- SI Strain 6100 ([4]; MRSA): 1.52
- SI Strain 6154 ([4]; MRSA): 1.52
- SI Strain 6613 ([4]; MRSA): 1.52
